These are yes or no findings as the source states them, for the method shown. A result given as binding can be weak or reduced; the word gives no strength.
Molecular target: GST-ERK7 kinase domain (residues 2 to 358) (Toxoplasma gondii) (UniProt Q2QDG8)
Experiment: pull-down; GST-ERK7 2–358 bound to glutathione Sepharose in 10 mM Hepes pH 7.0, 300 mM NaCl, 10 mM DTT; equimolar purified SUMO-AC9 fusions incubated 5 to 10 min, four washes; Western blot with anti-His6; both purified

With “SUMO fusion of AC9_(401–452) (from UniProt S7V0W9) (domain or fragment)” the binding was “binds”.

— publication PMC7275706
